From PubChem BioAssay AID2685 (National Center for Advancing Translational Sciences (NCATS), 2010)
This is one part of the list. These are further read-outs of the screen, such as a control signal, another cell line or another target. No call is given for them. The list favours compounds with an active or inconclusive main result. The note in brackets gives the kind of curve behind each potency; many fits are weak.

Assay: qHTS Assay for Lipid Storage Modulators in Drosophila S3 Cells;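 on cell number change: cells counted by Cell Tracker Red CMTPX staining in the red channel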
Conditions: BODIPY lipid droplet fluorescence, 18-24 h; for cell number change: measured here: cell count max response, cells fed with added oleic acid
In short: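 Drosophila S3 cells loaded with oleic acid (400 uM, as added) and compounds at several concentrations; lipid droplets imaged by 488-nm laser-scanning cytometry, 500–530 nm intensity and object ratio to cell channel. Percent activity normalized to 20 uM Triacsin C.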

[1] = measured here: cell number channel AC50, cells fed with added oleic acid
[2] = measured here: lipid fluorescence (Fed channel) AC50, cells fed with added oleic acid

Row | Compound | cell number change [%] | AC50 [1] | AC50 [2]
1 | Cc1nc(C)c(-c2csc(Nc3ccc(N)cc3)n2)s1 | -42.9 | 29.1 µM [falling, partial curve, poor fit] | 25.9 µM [falling, partial curve, poor fit]
2 | CC1=Nc2ccccc2/C1=C\c1nc(-c2ccc(C(F)(F)F)cc2)oc1O | 41.1 | 16.4 µM [rising, partial curve, poor fit] | 18.4 µM [falling, single point]
3 | COc1ccc(S(=O)(=O)Nc2cccc(N(C)S(C)(=O)=O)c2)cc1C | -19.4 |  | 18.4 µM [falling, single point]
4 | O=C(Cc1ccccc1)c1nnc(-c2ccccc2)o1 | 41 |  | 
5 | CCC(C(=O)O)N1C(=O)c2ccccc2C1=O (configuration not stated) | -35.3 | 1.46 µM [falling, full curve, poor fit] | 0.731 µM [falling, full curve, poor fit]
6 | CCN1CCN(S(=O)(=O)c2ccc(S(=O)(=O)NCC3CCCO3)cc2)CC1 (configuration not stated) | 0.811 |  | 9.2 µM [rising, partial curve]
7 | Cc1oc(C)c(C(=O)NCCCC(=O)O)c1C(=O)NCCCC(=O)O | 16 |  | 25.9 µM [rising, single point]
8 | CCOC(=O)c1c(C)[nH]c(C(=O)OCC(=O)N(C)CC(=O)Nc2ccccc2Cl)c1C | -26 |  | 13 µM [falling, partial curve, poor fit]
9 | CN(Cc1nc(-c2ccncc2)no1)S(=O)(=O)c1ccc(Cl)cc1 | -14.1 |  | 
10 | CCCCC1(Cc2ccc([N+](=O)[O-])cc2)C(=O)N(c2ccccc2)N(c2ccccc2)C1=O | -17.4 |  | 7.31 µM [falling, partial curve, poor fit]
11 | CCOc1ccc(NC(=O)Nc2nc3ccc(S(C)(=O)=O)cc3s2)cc1 |  | 0.58 µM [rising, single point] | 29.1 µM [falling, single point]
12 | C[C@@H](C(=O)NCc1ccc(S(C)(=O)=O)cc1)[C@@H]1C[C@@]1(C)[C@@H](NC(=O)OCc1ccccc1)c1ccccc1 | 15.8 | 0.58 µM [rising, partial curve, poor fit] | 0.731 µM [rising, single point]
13 | COc1cc(NC(=O)c2onc(C)c2Cl)c(OC)cc1Cl | -35.2 | 16.4 µM [falling, single point] | 
14 | Cc1ncoc1C(=O)N1CCCC(C(=O)c2cccc(OC(C)C)c2)C1 (configuration not stated) | -40.5 | 14.6 µM [falling, partial curve] | 18.4 µM [falling, single point]
15 | CCN(c1ccccc1)S(=O)(=O)c1ccc(C(=O)Nc2cc(C)ccn2)cc1 | -5.49 |  | 6.51 µM [falling, partial curve]
16 | CC(C)NC(=O)C1CCN(C(=O)c2ccc(-c3ccccc3)cc2)CC1 | 1.28 | 0.0731 µM [falling, full curve, poor fit] | 23.1 µM [rising, single point]
17 | C/C(=N/NS(=O)(=O)c1cc(C)ccc1C)c1c[nH]c2ccccc12 | -7.67 |  | 
18 | Cc1c(Cl)cccc1NC(=O)c1cc(-c2ccccc2O)n[nH]1 | -3.73 |  | 
19 | c1ccc2nc3c(nc2c1)CCc1nonc1-3 | -9.3 | 0.291 µM [rising, full curve, poor fit] | 29.1 µM [rising, single point]
20 | Cc1cccc(Oc2ccccc2NS(=O)(=O)c2ccc(CCC(=O)O)cc2)c1 | 17.9 | 0.291 µM [rising, full curve, poor fit] | 
21 | COc1ccc(CN(CCCN2CCOCC2)C(=O)Nc2ccccc2)cc1OC | -4.68 |  | 

Row | Compound | cell number change [%] | AC50 [1] | AC50 [2]
22 | C[N+]1(CC2COC3(CCCCC3)O2)CCCCC1 (configuration not stated) | -20.6 |  | 5.8 µM [falling, full curve]
23 | O=C(COc1ncnc2ccccc12)Nc1cccc([N+](=O)[O-])c1 | -8.8 |  | 3.66 µM [falling, single point]
24 | O=C1CCC/C(=N/Nc2ccc(Cl)cc2)C1 | 8.91 |  | 0.651 µM [rising, full curve, poor fit]
25 | CCOc1ccc(C(=O)NCc2ccccn2)cc1 | 10.8 |  | 
26 | CCOc1ccccc1C(=O)NC(C(=O)Nc1ccccc1N1CCOCC1)C(C)C (configuration not stated) | 13.6 |  | 2.91 µM [rising, partial curve]
27 | CC(=O)c1ccc(N2CCN(C(=O)/C=C/c3ccc4ccccc4n3)CC2)cc1 | 110 | 25.9 µM [rising, single point] | 18.4 µM [rising, partial curve]
28 | Cc1ccc(S(=O)(=O)N2CCOCC2)cc1C(=O)Nc1ccc2c(c1)OCCO2 | 4.1 |  | 0.116 µM [rising, full curve, poor fit]
29 | COc1cc(/C=N/N2CCN(c3ccccc3OC)CC2)ccc1O |  |  | 3.66 µM [falling, partial curve]
30 | O=C(O)C1CC=CCC1C(=O)Nc1cccc([N+](=O)[O-])c1 (configuration not stated) | -0.187 |  | 1.16 µM [falling, single point]
31 | CC(C)CNC(=O)c1cccc(NC(=O)C2CCCO2)c1 (configuration not stated) | -5 |  | 0.82 µM [falling, single point]
32 | O=c1[nH]c(CN2CCOCC2)nc2ccccc12 | -24.9 |  | 29.1 µM [falling, single point]
33 | FC(F)Oc1ccc(NC(=S)N2CCN(Cc3ccccc3)CC2)cc1 | 5.35 |  | 
34 | O=C(NNC(=O)C1CCN(S(=O)(=O)c2c(Cl)cccc2Cl)CC1)c1ccccc1O | -18 |  | 
35 | CCOC(=O)c1cnc2c(cnn2C)c1NCCCn1ccnc1 | 11.4 |  | 
36 | CCn1c(SC(C)C(=O)NCC2CCCO2)nc2ccccc21 (configuration not stated) | -2.08 |  | 29.1 µM [rising, single point]
37 | COc1ccc(-c2nc(SCC(=O)NCc3ccco3)c(-c3ccccc3)[nH]2)cc1OC | 49.7 | 1.46 µM [rising, partial curve] | 3.26 µM [rising, partial curve]
38 | CCCCNC(=O)c1ccc2c(c1)N(C)C(=O)c1ccccc1S2 | 29.8 |  | 
39 | CC1(C)NC(=O)N(CC(O)CN2CCOCC2)C1=O (configuration not stated) | -24.8 | 0.58 µM [falling, full curve, poor fit] | 29.1 µM [falling, single point]
40 | CCOC(=O)c1[nH]c(C)c(/C(O)=C2\C(=O)C(=O)N(CCN3CCOCC3)C2c2ccco2)c1C (configuration not stated) | 121 |  | 
41 | Cc1nn(-c2cccc(Cl)c2)c(Cl)c1/C=N/NC(=O)c1cccs1 | -51.5 | 5.17 µM [falling, partial curve] | 5.8 µM [falling, partial curve]
42 | COc1cccc(N2CCN(CC(=O)Nc3nnc(-c4ccccc4)s3)CC2)c1 | -19.1 |  | 

Row | Compound | cell number change [%] | AC50 [1] | AC50 [2]
43 | O=C(Cc1ccccc1)NC(=S)Nc1ccc(OC(F)F)cc1 | -9.12 |  | 4.11 µM [rising, partial curve, poor fit]
44 | COC(=O)C1=C(C)NC(=O)NC1c1ccc(-c2ccc(F)cc2)o1 (configuration not stated) | -11.5 |  | 0.58 µM [falling, single point]
45 | O=C(C1CCCO1)N1CCN(C(=S)Nc2ccc(Br)cc2)CC1 (configuration not stated) | 3.81 |  | 
46 | O=S(=O)(c1ccc(OCC(O)CN2CCN(c3ccccc3Cl)CC2)cc1)N1CCOCC1 (configuration not stated) | -0.722 |  | 
47 | CC1=C(C(=O)OCc2ccccc2)C(c2cccnc2)n2nnnc2N1 (configuration not stated) | -23.9 |  | 29.1 µM [falling, single point]
48 | CCOc1ccc(C2C(C#N)=C(N)Oc3cc(C)n(CCN(C)C)c(=O)c32)cc1OCC (configuration not stated) | 26.8 |  | 6.51 µM [falling, single point]
49 | CCOC(=O)N1CCN(C(=O)c2cn(C)c3ccc(S(=O)(=O)N(C)C4CCCCC4)cc3c2=O)CC1 | -15 |  | 25.9 µM [rising, single point]
50 | CC(NC(=O)c1cccnc1)C(c1cccs1)N1CCN(c2ccccc2F)CC1 (configuration not stated) | -7.98 |  | 3.26 µM [falling, full curve]
51 | COc1ccc(C(=O)O)cc1F | 2.7 |  | 6.51 µM [falling, single point]
52 | CC(=O)c1c(C)[nH]c(C(=O)CN2C(=O)NC3(CCCCC3C)C2=O)c1C (configuration not stated) | 57.5 | 18.4 µM [rising, single point] | 
53 | Cc1cccc(C)c1N1CCN(C(=O)c2ccc3c(c2)OCO3)CC1 | -22 |  | 2.91 µM [rising, single point]
54 | OC(c1cc(-c2ccc(C(F)(F)F)cc2)nc(C(F)(F)F)c1)C1CCCCN1 (configuration not stated) | -101 | 13 µM [falling, partial curve] | 11.6 µM [falling, partial curve]
55 | CSc1nnnn1CCn1nnnc1SC | 18.4 |  | 
56 | O=C(COc1ccccc1)N=C1SC2CS(=O)(=O)CC2N1CCc1ccccc1 (configuration not stated) | -6.73 |  | 0.58 µM [rising, single point]
57 | COc1cccc(-n2cc(CNCc3cn(C)nc3-c3ccccc3F)cn2)c1 | -26.7 |  | 20.6 µM [falling, single point]
58 | CC(=O)c1cccc(NC(=O)c2cc(C(C)C)on2)c1 | 26.3 |  | 6.51 µM [rising, single point]
59 | CC(=O)Nc1ccc(C(=O)CSc2nnc(-c3ccc(O)cc3)n2CC2CCCO2)cc1 (configuration not stated) | -10.3 |  | 
60 | Cc1ccc(Oc2nc3ccccc3n3c(C)nnc23)c(C)c1 |  | 1.16 µM [rising, full curve] | 1.3 µM [rising, full curve]
61 | Cc1nnc(SCC(=O)NC2CCCCCC2)n1C | -10.8 |  | 4.11 µM [rising, single point]

Looked up by structure from above:
Row | Compound | cell number change [%] | AC50 [1] | AC50 [2]
60 | Cc1ccc(Oc2nc3ccccc3n3c(C)nnc23)c(C)c1 |  | 1.16 µM [rising, full curve] | 1.3 µM [rising, full curve]
44 | COC(=O)C1=C(C)NC(=O)NC1c1ccc(-c2ccc(F)cc2)o1 (configuration not stated) | -11.5 |  | 0.58 µM [falling, single point]
47 | CC1=C(C(=O)OCc2ccccc2)C(c2cccnc2)n2nnnc2N1 (configuration not stated) | -23.9 |  | 29.1 µM [falling, single point]
53 | Cc1cccc(C)c1N1CCN(C(=O)c2ccc3c(c2)OCO3)CC1 | -22 |  | 2.91 µM [rising, single point]
51 | COc1ccc(C(=O)O)cc1F | 2.7 |  | 6.51 µM [falling, single point]
